Reference: article PMC7819943, “Rice protein-binding microarrays: a tool to detect cis-acting elements near promoter regions in rice”
The other results are listed elsewhere or left out.

biological target: T1, OsSMF1 (Oryza sativa, UniProt Q6ZLB0 1-436); experiment: protein-binding microarray (RPBM); PBS, 2% BSA, 51.3 ng/ul salmon testes DNA, 50 uM zinc acetate, 200 nM TF, 25 C, 1 h; high values mean tight binding; conditions: protein: recombinant; tags: N-terminal polyhistidine and DsRed monomer fusion (pET32a); chain copies: 2; label: CyDye5-dUTP incorporated in the synthesized complementary strand; 3' TTTTT single-stranded linker to array surface; dsDNA, one strand shown
T1 sequence: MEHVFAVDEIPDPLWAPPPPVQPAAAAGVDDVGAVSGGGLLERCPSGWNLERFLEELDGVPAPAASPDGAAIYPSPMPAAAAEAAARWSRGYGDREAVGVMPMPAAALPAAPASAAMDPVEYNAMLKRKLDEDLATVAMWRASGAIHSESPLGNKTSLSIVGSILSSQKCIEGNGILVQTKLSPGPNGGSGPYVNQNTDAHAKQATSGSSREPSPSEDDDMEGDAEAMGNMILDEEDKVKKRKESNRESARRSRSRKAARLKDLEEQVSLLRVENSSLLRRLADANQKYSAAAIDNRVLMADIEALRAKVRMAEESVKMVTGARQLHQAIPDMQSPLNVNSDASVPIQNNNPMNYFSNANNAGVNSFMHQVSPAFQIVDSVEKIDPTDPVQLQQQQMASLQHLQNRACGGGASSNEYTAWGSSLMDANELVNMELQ
Procedure, shortened: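 Binding signal is defined as the fluorescence intensity of each feature in arbitrary units, read on an Axon 4000B scanner. Transcription factors with N-terminal polyhistidine and DsRed fusions came from E. coli BL21-CodonPlus and were purified on Ni–NTA. They were incubated at 200 nM for 1 h at 25 °C on a custom Agilent array that had been made double-stranded with Cy5-dUTP, with 50 µM zinc acetate present, and the array was washed.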

| Sequence | binding signal |
| --- | --- |
| GAACCCGATCAGCAGCCGTGCACGTGTCCCATACGCCGTTCGGAGTCACCTAGTGCAG | 5170 fluorescence intensity (a.u.) |
| CCTCACACGATCACATTCGTGACTCACTCGAAAGAGAAAGCGGAGTCACCTAGTGCAG | 3340 fluorescence intensity (a.u.) |
| TAGACATCTCAGCGCCACGTTAGCTGGCGCTGAATGCGGTCGGAGTCACCTAGTGCAG | 8720 fluorescence intensity (a.u.) |
| CTCTCTCTCTCTCTCTCTCTCTCTCTTGCCATTTAAAAGACGGAGTCACCTAGTGCAG | 4760 fluorescence intensity (a.u.) |
| ATAGAGGGAGCTTCACCTGTTGCTTTGCGCCACGTGTCATCGGAGTCACCTAGTGCAG | 28400 fluorescence intensity (a.u.) |
| TTACGATATAGTGTGCCAATTGGCACACCTACATTTTAGTCGGAGTCACCTAGTGCAG | 45700 fluorescence intensity (a.u.) |
| AATTGTTACATGTATATATGTGTCACGTTGGATGATGTTTCGGAGTCACCTAGTGCAG | 8320 fluorescence intensity (a.u.) |
| ACAATTCTTTATCGATGGGTTAAGTTAAACCTGACGTATTCGGAGTCACCTAGTGCAG | 3660 fluorescence intensity (a.u.) |
| TCCCTGTCCTGCAAGATTCGGCACGCAGAAAACGTTCGATCGGAGTCACCTAGTGCAG | 35600 fluorescence intensity (a.u.) |
| TTCATGCGCCCACATGACGTAGTGAATTAGTGGACTATGTCGGAGTCACCTAGTGCAG | 4570 fluorescence intensity (a.u.) |
| GTCATACATTAAAATACGGAGGGAGTATTACACATTGGATCGGAGTCACCTAGTGCAG | 3940 fluorescence intensity (a.u.) |
| AAAATGCCACATCGGTATGCCGCATCTTCGTTGCAATCTTCGGAGTCACCTAGTGCAG | 6330 fluorescence intensity (a.u.) |
| TGAACACATCAGTAAACATATTACTACACGGTGGCTATTACGGAGTCACCTAGTGCAG | 4140 fluorescence intensity (a.u.) |
| ACAGATAGAGGCCATTAGACTGTGTACAAGAGCTGAGTCACGGAGTCACCTAGTGCAG | 10000 fluorescence intensity (a.u.) |
| ACAGCTCCAACTCCTAAATATAACTCCAGGAGTTGAGTCTCGGAGTCACCTAGTGCAG | 26200 fluorescence intensity (a.u.) |
| CTGTTTCTAACGATGGCACGTATACAAATTTGTCTGGCTCCGGAGTCACCTAGTGCAG | 4800 fluorescence intensity (a.u.) |
| AAATGTTTAGGGGAATGCTACATGACGGTATCTCGTTCAGCGGAGTCACCTAGTGCAG | 3520 fluorescence intensity (a.u.) |
| GTCAAATCACCTGGCCTTGGGCTGGGTCATATGACCATCTCGGAGTCACCTAGTGCAG | 3200 fluorescence intensity (a.u.) |
| TTGGAGTCGTGTGTTCGATCGCCGCGCTATCCACGTCGCCCGGAGTCACCTAGTGCAG | 4220 fluorescence intensity (a.u.) |
| TTCTTTCTGCTACGAACAAATGTTCACCACTGTAGCCACTCGGAGTCACCTAGTGCAG | 3230 fluorescence intensity (a.u.) |
| GTCATGTCTACGTGTCGCGCTCCAGTTCGCCGCCCACCACCGGAGTCACCTAGTGCAG | 13600 fluorescence intensity (a.u.) |
| GCTAGACGGTTGTGGCGTTACGTCATGGCGATCGACTATGCGGAGTCACCTAGTGCAG | 6430 fluorescence intensity (a.u.) |
| GAAAATGGGTTTAAACAATTAAAGAGTGTGGTCCATATGACGGAGTCACCTAGTGCAG | 30200 fluorescence intensity (a.u.) |
| TGTTTCGATTATTCCTTTTGTCTGACGTACACAGTGCATGCGGAGTCACCTAGTGCAG | 5420 fluorescence intensity (a.u.) |
| AAGCGAGTTGCACACCACGTTGGATTAGATCCTACTAACCCGGAGTCACCTAGTGCAG | 3730 fluorescence intensity (a.u.) |
| TGAAAGGGTTGCACGCACGATTTCCACGCACGCGTACGTGCGGAGTCACCTAGTGCAG | 4420 fluorescence intensity (a.u.) |
| CTATATGGAGGTAGTAAATCACATGGACCAATCAGATGGTCGGAGTCACCTAGTGCAG | 19100 fluorescence intensity (a.u.) |

Copied from above for reference:

| Sequence | binding signal |
| --- | --- |
| TTGGAGTCGTGTGTTCGATCGCCGCGCTATCCACGTCGCCCGGAGTCACCTAGTGCAG | 4220 fluorescence intensity (a.u.) |
| TTCTTTCTGCTACGAACAAATGTTCACCACTGTAGCCACTCGGAGTCACCTAGTGCAG | 3230 fluorescence intensity (a.u.) |

Additional results.

| Sequence | binding signal |
| --- | --- |
| CTTGTTGACATTCTTTGGTGAGTTTGTCATGGTCTAAAATCGGAGTCACCTAGTGCAG | 3440 fluorescence intensity (a.u.) |
| TATTTGAAAATCGTAACTCCATCCTCTACGTGTGTATGACCGGAGTCACCTAGTGCAG | 3140 fluorescence intensity (a.u.) |
| GAAACTCTAAATCTGCCATTACCCCAAGTACATCATTAGTCGGAGTCACCTAGTGCAG | 3310 fluorescence intensity (a.u.) |
| AATCAAATCCAGCTGACGCGGTGTCCATCAATTAATAACACGGAGTCACCTAGTGCAG | 33700 fluorescence intensity (a.u.) |
| ATTGAGATATAGATAGATAGAAACGATGCTGCGTCATCGCCGGAGTCACCTAGTGCAG | 11000 fluorescence intensity (a.u.) |
| GTTGACATATGGATCCTGGTGTTATCGACTCAATGTAGAGCGGAGTCACCTAGTGCAG | 5150 fluorescence intensity (a.u.) |
| TTTCAGTGGTCCAAAACCGATGTGTCATATGTTGTACCAACGGAGTCACCTAGTGCAG | 4580 fluorescence intensity (a.u.) |
| TAAACTTGATATTGTAAACGTTTGCATATTTTATGTAAATCGGAGTCACCTAGTGCAG | 14500 fluorescence intensity (a.u.) |
| ACGTATATTCACAATTAAATGTGTTTCTTTCATTGTAACACGGAGTCACCTAGTGCAG | 15700 fluorescence intensity (a.u.) |
| GAGCTGGGGCGAGGCGTGACGTGGCGCTTTAATGGGCGTGCGGAGTCACCTAGTGCAG | 10600 fluorescence intensity (a.u.) |
| GATGGATTTAGGCCCACCTGTCAGTGGTAATTTTCTATGACGGAGTCACCTAGTGCAG | 3150 fluorescence intensity (a.u.) |
| CAACTGGCCATGTATGCACATGCACCCCAGAGACAACCTACGGAGTCACCTAGTGCAG | 3420 fluorescence intensity (a.u.) |
| GGGACACGTACGAAGCTGACGTGGCGATCGATCTGACGAACGGAGTCACCTAGTGCAG | 11500 fluorescence intensity (a.u.) |
| ATCACTTCATTATCACATGACAGACCAACATATAATGATGCGGAGTCACCTAGTGCAG | 44500 fluorescence intensity (a.u.) |
| CGGGTGGTAGCGGCCTCTCCCCGGCGGCAGCTCGTCCATGCGGAGTCACCTAGTGCAG | 13400 fluorescence intensity (a.u.) |
| ACTCTCGTCCTCGAAGGTGGCGCCATTGGTGCCGTAGGAACGGAGTCACCTAGTGCAG | 4250 fluorescence intensity (a.u.) |
| GAGGAGCGGATGTCCGTCATCCCCTCCGGCAGCATTCGGACGGAGTCACCTAGTGCAG | 3480 fluorescence intensity (a.u.) |
| CTCTCCTCTTCCTCCTCCTCCGCTTGATCTGGGGTGGGGTCGGAGTCACCTAGTGCAG | 3440 fluorescence intensity (a.u.) |
| ACCGCGATCGCTTCGTCAAATCCGCGCGCGCGTCGTGTCGCGGAGTCACCTAGTGCAG | 4440 fluorescence intensity (a.u.) |
| AATCTACTCCGGACGAGGAGTAATTTGGAGCGTGACAAGCCGGAGTCACCTAGTGCAG | 23800 fluorescence intensity (a.u.) |
| CTGATCTCGCCGTCCCGAGTTCGCCGGACACGCACGCACGCGGAGTCACCTAGTGCAG | 20600 fluorescence intensity (a.u.) |
| CCATGAGGCCATGACATCAAAATACTTCCAACGCAGCAAACGGAGTCACCTAGTGCAG | 3500 fluorescence intensity (a.u.) |
| CTTGGGCGCATGTGTGTCACCCTCTCCTTCCATTGATCCTCGGAGTCACCTAGTGCAG | 4590 fluorescence intensity (a.u.) |
| GATTCGGAGAATGGCCACGCGTCCCTCGCCACGTCCGATTCGGAGTCACCTAGTGCAG | 9490 fluorescence intensity (a.u.) |
| CAGCTGAACCATGGAAGGGAGCTACATGCAGCGCTTCTGACGGAGTCACCTAGTGCAG | 3200 fluorescence intensity (a.u.) |
| TTGTCGCTCCTCATCCCCGTCACCGAACTGTTGCCGCAACCGGAGTCACCTAGTGCAG | 4980 fluorescence intensity (a.u.) |
| TTCTCATCACGGTAAATTCAGCAAGTTCAGGCAACAATTGCGGAGTCACCTAGTGCAG | 38000 fluorescence intensity (a.u.) |

Quoted at random: two entries already listed.

| Sequence | binding signal |
| --- | --- |
| GATGGATTTAGGCCCACCTGTCAGTGGTAATTTTCTATGACGGAGTCACCTAGTGCAG | 3150 fluorescence intensity (a.u.) |
| ATCACTTCATTATCACATGACAGACCAACATATAATGATGCGGAGTCACCTAGTGCAG | 44500 fluorescence intensity (a.u.) |
